Results as given in PMC4879639.

Sequences of proteins named here, by UniProt entry; tags and fusion partners are left off.
UniProt P60335, whole entry: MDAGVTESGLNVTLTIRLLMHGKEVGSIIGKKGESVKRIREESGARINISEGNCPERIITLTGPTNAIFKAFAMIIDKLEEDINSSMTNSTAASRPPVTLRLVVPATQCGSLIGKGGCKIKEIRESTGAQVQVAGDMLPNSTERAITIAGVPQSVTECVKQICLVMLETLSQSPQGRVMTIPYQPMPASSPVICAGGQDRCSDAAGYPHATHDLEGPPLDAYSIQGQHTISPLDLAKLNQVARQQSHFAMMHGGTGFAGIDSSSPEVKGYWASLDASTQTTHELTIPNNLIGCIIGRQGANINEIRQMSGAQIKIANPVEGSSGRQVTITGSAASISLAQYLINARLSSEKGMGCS

Experiments:
[1] = biological target: PCBP1 (endogenous, macrophage whole cell lysate) (UniProt P60335); assay: competition with a labelled probe; conditions: unlabelled mt CRE 10 uM vs 200 nM WT CRE probe (legend says five-fold excess); Macrophage lysate EMSA: 50 mM Tris-HCl pH 7.4, 150 mM NaCl, 100 U/ml RNasin, 4 ug lysate in 20 ul, on ice 30 min, 6% PAGE; protein in an extract; label: none (unlabelled competitor)
[2] = biological target: PCBP1 (endogenous, macrophage whole cell lysate) (UniProt P60335); assay: EMSA supershift; conditions: anti-PCBP1, probe 200 nM, self-competed by excess unlabelled WT CRE; Macrophage lysate EMSA: 50 mM Tris-HCl pH 7.4, 150 mM NaCl, 100 U/ml RNasin, 4 ug lysate in 20 ul, on ice 30 min, 6% PAGE; protein in an extract

Sequence | binding result [1] | binding result [2]
CAUGUGGAAAAUAAAAAGGCUGU [mt CRE] | no binding | –
CAUGUGGCCCCUCCCCCGGCUGU [WT CRE] | – | binds

Construct, isoform or probe ends are uncertain for at least one entry. At least one result comes from cells or an extract, where the contact may be indirect. For some assays here: No signal at the amounts used counts as a negative.
